Source: the supplement of paper PMC3334620
In all, about 33,000 sequences were measured (“E-score (-0.5 to 0.5)”: median about -8e-05, highest 2% from about 0.23 on). The list shows a part of the results.

molecular target: T1, Nrg2 (UniProt P38082); assay: PBM E-score (8-mer binding enrichment) (E-score (-0.5 to 0.5)); higher = stronger / more preferred TF binding; details: protein concentration: 100 nM; construct: GST-full length
T1 sequence: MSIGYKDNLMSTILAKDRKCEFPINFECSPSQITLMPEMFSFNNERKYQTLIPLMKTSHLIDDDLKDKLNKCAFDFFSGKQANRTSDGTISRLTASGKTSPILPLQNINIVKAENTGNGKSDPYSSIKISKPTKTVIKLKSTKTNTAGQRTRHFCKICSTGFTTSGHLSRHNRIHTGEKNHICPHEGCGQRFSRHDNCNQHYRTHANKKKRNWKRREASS
Method: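 Universal 'all 10-mer' protein binding microarrays (Agilent AMADID 015681) probed with GST-tagged S. cerevisiae TFs (full-length or DBD) made by in vitro transcription/translation (PURExpress), about 100-200 nM. Bound TF was detected with fluorescent anti-GST. Each ungapped 8-mer (which stands for itself and its reverse complement) is scored by the PBM enrichment score (E-score), a modified Wilcoxon-Mann-Whitney statistic from -0.5 to +0.5, computed with the Universal PBM Analysis Suite. Scale: above 0.35 generally sequence-specific binding.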

Sequence	PBM E-score
CTCATTAC	0.0586
TCCGCCAA	-0.0411
GTTTACAA	0.00551
ATGGACCC	0.206
ATTATACG	0.252
AACCCTAC	0.0389
GGCTCGTA	-0.034
TAGGGTGA	0.0361
TCCTCTAA	-0.183
TAACCCGA	-0.0862
TACTACGA	0.122
CCAGACAA	-0.141
CTACCCTA	-0.0515
CCGAGTAA	0.0101
CTGAAGAC	-0.082
GACTGCAC	-0.21
ACGACTTA	-0.17
GGTCACAC	-0.278
ATCCCGTA	0.0853
AGTCCAGA	-0.106
AGGAGCTA	-0.282
CGGAGATA	0.0572
AAGGGATC	0.135
CAGCACCG	-0.027
ACAAATAC	0.225

Sequence	PBM E-score
CGTCTCCA	0.21
ATCGGGAC	-0.178
CGCAAATA	0.0777
CCCTCACC	-0.0172
GATTTCAC	0.127
GGGCGTCA	0.0318
GCCGCCAA	-0.038
ACGAAATC	0.203
AATTCAAT	0.129
ATCAGCAC	0.0345
CAATCGCC	0.00157
AGCGATCG	0.24
GAACATGC	-0.0112
AGTCGAAC	0.105
ACCCAATA	-0.0384
ATAACATG	0.024
CAACACAA	0.118
AGCGCTGC	-0.0837
AATGGGCT	0.00645
TGGGGTAA	0.126
ACGCCCTG	0.131
CATGCGCA	0.164
GCGCGGCC	0.0897
AACCGGAA	0.0485
CCGACGCA	-0.178

Sequence	PBM E-score
CCGCGTCG	0.0424
AAGAGGGG	-0.0386
GCTTTAAA	-0.0961
GATAATAC	0.151
ACGCAGGA	-0.0901
AATGTAAG	0.124
ATACATAT	0.235
GGCCGTAA	-0.0803
ATAGGAGA	-0.173
AGCTAGAT	0.0416
CCCCTTGA	0.2
TAGGTTCA	0.0602
AAGTGTCG	-0.0215
CGTCGGTC	0.00408
TACTTCCA	0.136
ATCCACAC	0.0612
GAGCACGA	0.0776
CGCGCTAG	0.03
ACTAATCG	0.278
GCCATACA	0.0705
GATGATCA	-0.00173
ACTAGGGG	0.0946
TGCCTACA	-0.102
AGGTATAA	0.117
CGTCGTGC	0.0843

Look-ups from the results shown:
Value of AATTCAAT under PBM E-score: 0.129
Value of TAGGTTCA under PBM E-score: 0.0602
Value of GATGATCA under PBM E-score: -0.00173
Value of TAACCCGA under PBM E-score: -0.0862
Value of CGGAGATA under PBM E-score: 0.0572

Next entries follow.

Sequence	PBM E-score
GCGGGGAC	0.054
GTGGTTAA	0.0728
AATGTAAA	0.131
GTTAGCTA	-0.0504
ATCAAATG	0.1
GCAGACAC	0.0688
GTTAAGCA	0.011
CCGGAATA	0.00475
AGAATGCA	0.138
CGGCATGC	0.0842
ACCTATCA	-0.0524
CTATACGA	-0.0599
CACGGCGG	-0.0766
AAGATAAG	0.014
ACCTAGTA	-0.208
TTCTGCAA	0.149
ATACGCAT	0.145
ATATGCTC	0.0262
CCTGGTCA	0.0654
CACGCATG	-0.102
AGATCGTG	-0.0506
AAGGCCCA	-0.13
AATCATCT	-0.0427
CATACCGA	-0.154
CCCCCAGC	-0.342

Sequence	PBM E-score
AGTCTGCC	-0.162
AACCGAAA	0.0409
AAGACTTA	-0.351
AGACCTGC	-0.253
CGACTGGA	0.00157
GGTCCCAA	-0.0386
CCATATGG	0.0558
AAGCAGGA	0.0194
TCTGCCAA	-0.2
GGCCTTAA	0.00956
AATGCGGA	0.102
AGACGATA	0.023
GGGCTGTA	-0.128
TACCGGTA	-0.0968
ATGAGAGA	0.172
ATGTGACC	-0.00755
AACCAAGT	0.157
CTGAGTCA	0.0517
TATCAGGA	0.0358
ACAGGTAC	-0.0791
AAATAGTT	0.113
AACGCGCC	-0.0139
CAAACATC	0.00976
CCCATTGC	-0.116
GCGGACGC	-0.0733

Sequence	PBM E-score
CTCGACTC	0.0209
ACCTACAA	0.0812
GAAATTCC	0.0392
ATGGTAAG	0.0032
CACCCTAA	0.102
GCGCTCAA	-0.115
CATTCTGA	0.0677
GGATGGAC	-0.065
ACAGTTCA	0.121
CGCCTCCA	-0.0712
ATCACTGC	0.155
GTCTGTAA	0.0552
CTACCCGC	-0.0291
CCTCCCGA	-0.265
TCACTGGA	-0.0905
GAACGATC	-0.0973
AGTTAAAC	0.123
AACCATGC	0.103
AAAGTCAA	0.0628
ACGGCCAG	-0.0637
ACCACATG	0.121
CCGGAACA	-0.0209
GCTCTGAC	-0.138
GGCCCAAC	-0.0164
TAAATGAA	0.0819

Sequence	PBM E-score
ACCCCGTC	-0.171
ACTTAGGC	-0.184
CTGCCAAC	-0.0286
CACTCTAG	-0.166
CCCGGAGG	-0.366
GCTGTCAC	-0.083
CGGTTCCA	-0.11
AGGGTTTC	0.0499
GATCACAC	-0.0126
CTGAAAAA	-0.0457
AGAACGGG	-0.029
ACACCGCC	-0.134
ACAACGTA	0.0175
CCTTATTC	-0.0168
AGGGTTAC	-0.14
CGGCCCCG	-0.232
AAATCAAT	0.13
GCAGGCAA	-0.0434
CTATCTAA	0.0964
CGATGCAC	0.00525
AACAAGAT	0.112
CAACCGCG	0.271
